Assay results reported in US10551384B2, “MTOR kinase mutations and methods of use thereof” (RUTGERS, THE STATE UNIVERSITY OF NEW JERSEY, priority 2016, dated 2020).
For at least one compound, name, drawing or mass did not settle the structure.

Chains of the proteins cited; added tags and fusions are not shown. Lines headed by an entry give the natural chain unless they say otherwise; changes in a name come on top.
UniProt P32600: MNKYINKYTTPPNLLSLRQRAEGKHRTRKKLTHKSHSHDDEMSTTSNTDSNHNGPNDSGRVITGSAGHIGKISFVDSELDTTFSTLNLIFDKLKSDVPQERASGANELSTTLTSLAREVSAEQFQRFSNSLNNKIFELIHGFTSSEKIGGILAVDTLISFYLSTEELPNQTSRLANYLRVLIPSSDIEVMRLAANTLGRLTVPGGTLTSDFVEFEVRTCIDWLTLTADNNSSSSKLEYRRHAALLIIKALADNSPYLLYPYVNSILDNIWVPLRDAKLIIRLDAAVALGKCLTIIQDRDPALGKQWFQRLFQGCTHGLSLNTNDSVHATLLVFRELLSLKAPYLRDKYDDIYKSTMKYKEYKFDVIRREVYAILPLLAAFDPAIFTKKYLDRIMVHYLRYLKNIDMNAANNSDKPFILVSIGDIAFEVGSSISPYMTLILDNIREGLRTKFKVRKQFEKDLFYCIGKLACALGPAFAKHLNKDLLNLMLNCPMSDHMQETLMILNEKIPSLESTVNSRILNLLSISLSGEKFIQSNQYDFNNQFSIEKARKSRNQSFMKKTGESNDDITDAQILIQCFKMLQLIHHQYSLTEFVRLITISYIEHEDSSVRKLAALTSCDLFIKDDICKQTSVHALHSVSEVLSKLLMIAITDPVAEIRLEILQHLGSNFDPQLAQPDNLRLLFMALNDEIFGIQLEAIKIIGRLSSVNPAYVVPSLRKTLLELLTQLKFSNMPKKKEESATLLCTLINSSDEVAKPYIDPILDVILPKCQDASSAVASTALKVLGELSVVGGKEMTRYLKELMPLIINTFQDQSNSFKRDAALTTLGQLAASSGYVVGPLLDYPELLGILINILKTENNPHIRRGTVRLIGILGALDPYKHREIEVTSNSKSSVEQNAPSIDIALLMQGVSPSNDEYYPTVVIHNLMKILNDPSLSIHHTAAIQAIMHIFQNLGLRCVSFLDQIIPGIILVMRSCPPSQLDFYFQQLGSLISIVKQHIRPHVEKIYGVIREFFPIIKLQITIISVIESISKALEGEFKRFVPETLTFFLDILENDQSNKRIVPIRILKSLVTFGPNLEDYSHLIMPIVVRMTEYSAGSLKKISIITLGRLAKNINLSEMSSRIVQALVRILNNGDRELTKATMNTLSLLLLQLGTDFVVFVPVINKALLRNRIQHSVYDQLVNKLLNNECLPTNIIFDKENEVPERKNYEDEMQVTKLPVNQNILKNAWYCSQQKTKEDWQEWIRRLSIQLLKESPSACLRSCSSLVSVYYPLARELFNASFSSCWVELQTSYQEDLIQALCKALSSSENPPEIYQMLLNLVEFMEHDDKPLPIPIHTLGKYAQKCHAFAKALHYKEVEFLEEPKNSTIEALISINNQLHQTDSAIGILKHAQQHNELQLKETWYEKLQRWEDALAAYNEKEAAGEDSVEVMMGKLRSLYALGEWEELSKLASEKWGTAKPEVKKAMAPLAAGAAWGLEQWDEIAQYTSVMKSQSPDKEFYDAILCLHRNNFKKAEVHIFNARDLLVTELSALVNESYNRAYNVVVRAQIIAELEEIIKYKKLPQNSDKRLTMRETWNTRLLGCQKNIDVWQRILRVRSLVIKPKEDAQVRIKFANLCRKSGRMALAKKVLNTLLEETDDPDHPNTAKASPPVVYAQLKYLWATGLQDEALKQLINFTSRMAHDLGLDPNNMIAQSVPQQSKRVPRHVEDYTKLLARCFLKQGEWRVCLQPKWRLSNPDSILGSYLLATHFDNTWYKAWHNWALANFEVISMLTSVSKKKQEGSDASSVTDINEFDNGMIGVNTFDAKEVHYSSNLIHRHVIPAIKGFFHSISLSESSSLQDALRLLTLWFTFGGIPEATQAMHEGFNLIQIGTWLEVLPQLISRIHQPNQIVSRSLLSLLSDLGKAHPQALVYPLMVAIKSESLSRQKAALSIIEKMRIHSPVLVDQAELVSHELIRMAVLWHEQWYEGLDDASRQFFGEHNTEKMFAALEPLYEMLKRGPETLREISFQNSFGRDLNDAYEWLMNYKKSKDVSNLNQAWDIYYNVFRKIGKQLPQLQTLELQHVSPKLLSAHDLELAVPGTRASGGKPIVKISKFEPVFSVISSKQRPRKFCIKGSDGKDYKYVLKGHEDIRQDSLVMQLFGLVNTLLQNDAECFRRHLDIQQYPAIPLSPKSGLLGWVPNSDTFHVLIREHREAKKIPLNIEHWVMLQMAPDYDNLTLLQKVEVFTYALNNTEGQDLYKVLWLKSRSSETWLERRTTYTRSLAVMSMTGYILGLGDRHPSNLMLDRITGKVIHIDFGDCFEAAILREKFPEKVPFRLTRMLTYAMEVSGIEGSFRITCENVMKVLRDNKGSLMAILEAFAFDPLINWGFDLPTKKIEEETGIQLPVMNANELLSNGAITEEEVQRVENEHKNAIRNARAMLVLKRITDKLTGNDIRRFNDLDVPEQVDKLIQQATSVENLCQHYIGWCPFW

Molecular target: T1, tor2-dg cells expressing TOR2-mTOR fusion (UniProt P32600+P42345, A1929L/A1944S/A1986S/A2056E/A2073S/C1999R/C2085L/C2133A/D1912T/D1918E/D1933G/D1947H/D2096N/DUP2140-2140/E1921Q/E2000I/E2014H/E2032D/E2033D/E2049A/E2059K/E2080D/G1897S/G1954S/G2046K/G2092K/H1915G/H1958L/H1988Q/H2028Y/H2055Y/H2106N/I1939L/I1957L/I1964L/I1973V/I2021V/K1928N/K1993S/K1996E/K2045E/K2066R/K2087N/K2095S/L1923M/L1952I/L1956S/L1995I/L2037Q/L2103I/M2010E/M2011L/M2026Q/M2058L/M2079N/M2089K/M2132S/N1898S/N1899S/N1920T/N1989K/N1992L/N1997K/N2003P/N2071Q/N2093D/P1951Q/Q1937E/Q1959S/Q2007D/Q2063E/Q2072N/Q2082Y/R1890H/R1896E/R1950N/R1966K/R2042H/R2086M/R2110K/R2134H/S1980I/S2112G/S2120T/T1903A/T1948Q/T1962S/T1977M/T1983E/T1984S/T1985L/T2004V/T2068I/T2098N/T2119Q/V1906L/V1919A/V1924H/V1927F/V2019M/V2044T/V2050A/W1916I/Y1913F/Y1967A/Y2038F/Y2074F/Y2125H)
T1 construct: fused in frame with mTOR kinase domain (2140-2549 aa); yeast TOR2 N-terminus (1-2080 aa); expressed in transfected cells; host or cells: S. cerevisiae W303 tor2-dg, centromeric plasmid derived from pML40-TOR2
Type: cell-based, S. cerevisiae
Conditions: 10-fold serial dilutions on plates containing drug

COc1cccc2cc(-c3nc([C@H]4CC[C@H](C(=O)O)CC4)n4ncnc(N)c34)[nH]c12 [OSI-027]
drug sensitivity of tor2-dg cells expressing TOR2-mTOR: highly sensitive
